# According to PMC10112978:
# No constants are given. Whether binding was seen depends on the method and setting. In cells and extracts the contact can be indirect. Some entries that bind do so weakly or less than the wild type. For part of these data: Sequences can lack the tags named with a protein.
# T1: Vps1–GFP (S. cerevisiae) (UniProt P21576)
# T1 sequence: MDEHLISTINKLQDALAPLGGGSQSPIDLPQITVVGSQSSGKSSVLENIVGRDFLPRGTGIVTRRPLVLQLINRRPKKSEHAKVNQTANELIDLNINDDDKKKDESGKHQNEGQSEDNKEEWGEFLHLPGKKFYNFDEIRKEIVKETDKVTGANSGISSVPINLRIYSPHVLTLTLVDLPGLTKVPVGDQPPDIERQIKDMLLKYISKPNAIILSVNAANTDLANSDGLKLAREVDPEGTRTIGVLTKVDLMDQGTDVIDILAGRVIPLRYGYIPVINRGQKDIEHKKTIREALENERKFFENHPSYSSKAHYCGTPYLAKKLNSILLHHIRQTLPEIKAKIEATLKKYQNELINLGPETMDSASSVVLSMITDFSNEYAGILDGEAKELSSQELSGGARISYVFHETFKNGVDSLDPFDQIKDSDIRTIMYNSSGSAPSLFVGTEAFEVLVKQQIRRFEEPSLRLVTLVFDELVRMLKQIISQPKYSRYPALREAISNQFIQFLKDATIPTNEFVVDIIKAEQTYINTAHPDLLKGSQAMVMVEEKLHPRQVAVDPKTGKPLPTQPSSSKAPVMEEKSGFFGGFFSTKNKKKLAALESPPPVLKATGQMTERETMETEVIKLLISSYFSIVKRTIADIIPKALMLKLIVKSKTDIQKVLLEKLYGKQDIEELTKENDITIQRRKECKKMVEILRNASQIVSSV
# T2: Vn–Atg11 (S. cerevisiae) (UniProt Q12527)
# T2 sequence: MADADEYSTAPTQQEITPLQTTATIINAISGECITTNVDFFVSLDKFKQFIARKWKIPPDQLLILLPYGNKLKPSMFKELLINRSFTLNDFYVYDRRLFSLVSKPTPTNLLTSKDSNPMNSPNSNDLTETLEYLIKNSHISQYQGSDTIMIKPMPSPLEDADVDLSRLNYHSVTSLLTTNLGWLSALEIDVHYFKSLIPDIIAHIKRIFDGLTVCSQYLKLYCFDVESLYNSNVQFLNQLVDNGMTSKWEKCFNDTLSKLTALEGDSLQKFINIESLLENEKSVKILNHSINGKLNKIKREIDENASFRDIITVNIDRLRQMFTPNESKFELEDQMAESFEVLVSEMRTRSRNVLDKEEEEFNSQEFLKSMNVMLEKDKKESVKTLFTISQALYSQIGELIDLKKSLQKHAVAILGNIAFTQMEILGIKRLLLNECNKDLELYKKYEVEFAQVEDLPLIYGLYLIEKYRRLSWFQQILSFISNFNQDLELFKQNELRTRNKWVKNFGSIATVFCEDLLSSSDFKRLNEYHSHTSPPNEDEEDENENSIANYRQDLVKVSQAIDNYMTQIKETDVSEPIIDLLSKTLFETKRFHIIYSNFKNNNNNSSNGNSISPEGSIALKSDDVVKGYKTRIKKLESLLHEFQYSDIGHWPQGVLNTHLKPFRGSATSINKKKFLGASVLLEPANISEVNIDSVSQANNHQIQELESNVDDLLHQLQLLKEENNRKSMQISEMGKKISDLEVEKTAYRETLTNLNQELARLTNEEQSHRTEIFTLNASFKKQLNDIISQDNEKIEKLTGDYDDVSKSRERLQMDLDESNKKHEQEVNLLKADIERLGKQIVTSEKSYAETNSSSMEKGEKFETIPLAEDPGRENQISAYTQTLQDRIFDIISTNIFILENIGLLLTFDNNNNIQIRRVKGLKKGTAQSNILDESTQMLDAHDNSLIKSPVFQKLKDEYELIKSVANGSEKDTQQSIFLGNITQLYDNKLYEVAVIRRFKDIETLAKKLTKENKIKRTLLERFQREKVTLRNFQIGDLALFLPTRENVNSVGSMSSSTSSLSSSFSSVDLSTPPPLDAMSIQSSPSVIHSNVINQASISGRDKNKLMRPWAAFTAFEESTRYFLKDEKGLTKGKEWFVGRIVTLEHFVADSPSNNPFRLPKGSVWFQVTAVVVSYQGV
# How the values were obtained:
# Vps1–GFP (S. cerevisiae) = target: T1, Vps1–GFP (S. cerevisiae); test: co-IP; GFP fusions precipitated from yeast lysate with GFP-Trap agarose (GFP–nanobody beads, ChromoTek), 2 h at 4°C; lysis buffer 50 mM HEPES-KOH pH 7.6, 150 mM KCl, 100 mM β-glycerol phosphate, 25 mM NaF, 1 mM EGTA, 1 mM MgCl2, 0.15% Tween-20; western blot with anti-GFP, anti-Vps1 and PAP
# Vn–Atg11 (S. cerevisiae) = target: T2, Vn–Atg11 (S. cerevisiae); test: split reporter; bimolecular fluorescence complementation of Vn–Atg11 and Vps1–Vc (Venus) in WT, atg36Δ and pex27Δ yeast cells expressing HcRed–PTS1; grown overnight on oleate-containing medium, then starved 6 h on 2% glucose-containing medium lacking nitrogen
Binder,binding (Vps1–GFP (S. cerevisiae)),binding (Vn–Atg11 (S. cerevisiae))
"Pex27–TAP (protein, UniProt Q08580 1-376) MTSDPVNTNISSPTLTDRNADESWELLKREFNTLFSNLKTDSKEEGNFTDNKGVIAKKPIVLQDNDDSDFTQNQGKVATATSTTSDRSFKRTLGSIEMKKRYVKKNCQAKFVFNTLEGKEVCSKILQHTLGLLSLLLLTRKIRLLNFSSKLRLVIQQLSLFRYYLRFGNFAINLYKIIKRFRWLREMKKLHYKDQSILFYFKNFRFFDIIEAFYNLTDELILFHKLQSMFGKKNTSHANTNRLMTFVKEQHYILWEVLNILAINKNIEQWRQLIRDEIYLSIYNTSGNAIKEYELKYKLPTNDKVNLELRKNNITLDFYKIILNLLSNLINIKGKRDKYNSELAYEIISVGSGVTELLKLWNRAKVTSANEHTSAV",binds,
"endogenous Vps1 (protein, UniProt P21576 1-704) MDEHLISTINKLQDALAPLGGGSQSPIDLPQITVVGSQSSGKSSVLENIVGRDFLPRGTGIVTRRPLVLQLINRRPKKSEHAKVNQTANELIDLNINDDDKKKDESGKHQNEGQSEDNKEEWGEFLHLPGKKFYNFDEIRKEIVKETDKVTGANSGISSVPINLRIYSPHVLTLTLVDLPGLTKVPVGDQPPDIERQIKDMLLKYISKPNAIILSVNAANTDLANSDGLKLAREVDPEGTRTIGVLTKVDLMDQGTDVIDILAGRVIPLRYGYIPVINRGQKDIEHKKTIREALENERKFFENHPSYSSKAHYCGTPYLAKKLNSILLHHIRQTLPEIKAKIEATLKKYQNELINLGPETMDSASSVVLSMITDFSNEYAGILDGEAKELSSQELSGGARISYVFHETFKNGVDSLDPFDQIKDSDIRTIMYNSSGSAPSLFVGTEAFEVLVKQQIRRFEEPSLRLVTLVFDELVRMLKQIISQPKYSRYPALREAISNQFIQFLKDATIPTNEFVVDIIKAEQTYINTAHPDLLKGSQAMVMVEEKLHPRQVAVDPKTGKPLPTQPSSSKAPVMEEKSGFFGGFFSTKNKKKLAALESPPPVLKATGQMTERETMETEVIKLLISSYFSIVKRTIADIIPKALMLKLIVKSKTDIQKVLLEKLYGKQDIEELTKENDITIQRRKECKKMVEILRNASQIVSSV",binds,
"Vps1–Vc (protein, UniProt P21576 1-704) MDEHLISTINKLQDALAPLGGGSQSPIDLPQITVVGSQSSGKSSVLENIVGRDFLPRGTGIVTRRPLVLQLINRRPKKSEHAKVNQTANELIDLNINDDDKKKDESGKHQNEGQSEDNKEEWGEFLHLPGKKFYNFDEIRKEIVKETDKVTGANSGISSVPINLRIYSPHVLTLTLVDLPGLTKVPVGDQPPDIERQIKDMLLKYISKPNAIILSVNAANTDLANSDGLKLAREVDPEGTRTIGVLTKVDLMDQGTDVIDILAGRVIPLRYGYIPVINRGQKDIEHKKTIREALENERKFFENHPSYSSKAHYCGTPYLAKKLNSILLHHIRQTLPEIKAKIEATLKKYQNELINLGPETMDSASSVVLSMITDFSNEYAGILDGEAKELSSQELSGGARISYVFHETFKNGVDSLDPFDQIKDSDIRTIMYNSSGSAPSLFVGTEAFEVLVKQQIRRFEEPSLRLVTLVFDELVRMLKQIISQPKYSRYPALREAISNQFIQFLKDATIPTNEFVVDIIKAEQTYINTAHPDLLKGSQAMVMVEEKLHPRQVAVDPKTGKPLPTQPSSSKAPVMEEKSGFFGGFFSTKNKKKLAALESPPPVLKATGQMTERETMETEVIKLLISSYFSIVKRTIADIIPKALMLKLIVKSKTDIQKVLLEKLYGKQDIEELTKENDITIQRRKECKKMVEILRNASQIVSSV",,binds
